In the supplement of paper PMC3334620:
Whole data set: some 33,000 sequences, median “E-score (-0.5 to 0.5)” near -0.015, cut for the highest 2% near 0.3. The list shows a part of the results.

Target: T1, Abf1 (UniProt P14164)
T1 sequence: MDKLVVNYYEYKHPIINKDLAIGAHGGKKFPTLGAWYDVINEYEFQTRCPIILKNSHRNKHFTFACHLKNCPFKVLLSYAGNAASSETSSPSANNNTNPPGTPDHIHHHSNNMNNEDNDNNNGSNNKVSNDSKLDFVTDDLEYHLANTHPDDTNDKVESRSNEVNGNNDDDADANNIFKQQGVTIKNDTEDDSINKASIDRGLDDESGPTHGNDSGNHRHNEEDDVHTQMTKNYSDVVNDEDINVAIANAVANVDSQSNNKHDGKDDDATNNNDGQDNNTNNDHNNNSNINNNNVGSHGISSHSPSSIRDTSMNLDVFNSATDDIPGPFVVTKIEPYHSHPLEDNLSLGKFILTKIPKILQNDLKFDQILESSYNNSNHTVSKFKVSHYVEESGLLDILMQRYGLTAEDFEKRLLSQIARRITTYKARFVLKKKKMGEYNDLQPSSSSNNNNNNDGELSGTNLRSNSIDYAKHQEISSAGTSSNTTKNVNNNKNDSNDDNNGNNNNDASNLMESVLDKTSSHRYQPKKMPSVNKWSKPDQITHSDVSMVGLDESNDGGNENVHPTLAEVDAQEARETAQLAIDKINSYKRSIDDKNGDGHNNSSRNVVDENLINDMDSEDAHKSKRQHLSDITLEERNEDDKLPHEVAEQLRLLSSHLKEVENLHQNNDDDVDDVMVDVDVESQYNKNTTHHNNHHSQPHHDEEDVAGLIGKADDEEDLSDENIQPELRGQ
Experiment: PBM E-score (8-mer binding enrichment) (E-score (-0.5 to 0.5)); higher = stronger / more preferred TF binding
Conditions: protein concentration: 200 nM; construct: GST-full length
Description: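 Universal 'all 10-mer' protein binding microarrays (Agilent AMADID 015681) probed with GST-tagged S. cerevisiae TFs (full-length or DBD) made by in vitro transcription/translation (PURExpress), about 100-200 nM. Bound TF was detected with fluorescent anti-GST. Each ungapped 8-mer (which stands for itself and its reverse complement) is scored by the PBM enrichment score (E-score), a modified Wilcoxon-Mann-Whitney statistic from -0.5 to +0.5, computed with the Universal PBM Analysis Suite. Scale: above 0.35 generally sequence-specific binding.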

Sequence	PBM E-score
ACGGCATC	0.203
ACCCAATG	-0.109
AACTTCGT	0.0012
CCCACCCG	-0.0134
GTTGTGCA	-0.143
CCGGTGGC	-0.29
AAGACGGT	0.165
ACCTTATC	0.0925
GCCTTCTA	-0.057
AGCCTCAA	-0.107
AAGGAATC	0.0406
GTTAGCGA	0.32
ACAGGCAG	-0.0782
ACACCTGA	-0.113
CTCCGCTC	-0.2
ACACGGCA	0.294
ATGCTTCC	-0.264
ATTACCCG	0.0504
TCAGCTCA	-0.107
AAAGTCTG	-0.0524
CTCCGGTA	-0.0172
CATCAATG	0.00816
CTGTTCAC	-0.0146
CACTGACA	0.132
CCTTACCC	-0.182

Sequence	PBM E-score
GCGCAGGA	-0.114
CATACGAG	0.171
AATACCCT	-0.0847
CTTCTATA	0.0624
AGTGAGGA	0.103
AAAAGCCC	-0.209
AAAGCTTG	-0.0657
GGGTTCTA	-0.121
AAGGTTGT	-0.1
CCCGCACA	-0.101
GCAAAGTA	0.0365
TCCCCACA	-0.203
AACCTGGG	-0.212
TTAACTAA	0.204
GCTTTGCC	-0.218
AGCGGCGA	0.0363
AGTCAATA	-0.0223
AAATTCTA	0.0776
ACGGATCA	0.0794
CCGGTATA	-0.056
GCTTCCAA	-0.008
ACGACCAT	0.119
CCACGGTC	-0.0478
ATTCAGGC	-0.0517
CCAACCCA	-0.127

Sequence	PBM E-score
CGGATCGA	-0.146
ACACGGTG	0.0335
GGCGCTAC	-0.17
AAAGGCGA	-0.00133
AGAGCGTC	0.0295
GGCAGCTA	0.128
GTGCATCA	0.271
AGGTCAAT	0.0507
CGGACCCA	-0.18
AATATTCT	0.0588
CAGAACTG	0.00223
AGCGGTAT	0.00674
CTATATAA	-0.178
CAGCCAAC	-0.0767
AAGGCAGG	-0.065
AACGTGAG	0.0297
CGCCGACA	-0.0736
CACGCCGC	-0.19
AGCGTGTC	-0.097
TATCTGGA	-0.0302
ACTTCTAC	0.101
GGTTGAGA	-0.0506
ACTGTACA	-0.0315
TAAAAAAA	0.146
ACGGCTTG	0.117

Sequence	PBM E-score
CGGTGTGC	-0.0196
ATTCCTAG	-0.0148
ACACCAAT	0.0514
TCCTGACA	0.0415
CTATATGA	0.0749
CCTCCGGC	0.0837
ACCAGGAT	0.0343
GCAGATCA	-0.0799
CCTCTACG	0.0681
ACTGACCA	-0.184
ATGGCGGC	-0.112
TAATCAAA	0.11
GCAATTAC	-0.126
AAACCTAT	-0.00276
CAATAAGG	-0.13
CAAGTGCA	-0.0318
ATCGTATA	0.326
AATTACAC	-0.0795
ATTATAGG	0.00322
AAACCAAC	-0.0828
GGGCGGTA	-0.326
AGGCGGAA	-0.0884
TCGCACAA	0.167
AGGCAACA	-0.256
ATACATTG	0.221

Sequence	PBM E-score
ATGTAGGC	-0.0335
GGGTATAC	-0.105
CACCTTCG	0.0402
CGAATTAG	0.131
GCGGACTA	-0.11
CTACTTCA	-0.0316
CGCACCAC	-0.0525
ATAAGTGG	0.126
AACGTGCG	0.153
TCGCTGAA	0.164
GACCCAGC	-0.176
CTTATTGA	0.0818
CTATCCGC	0.168
ACCACTTA	-0.0219
GCAGGAGA	-0.0105
CAGGTCGG	-0.127
AGCGGGCG	-0.141
CAGCCATC	-0.223
ATACTACG	0.153
AGATTCTA	0.028
GCGTCTAC	-0.0112
ACCCGTAT	0.045
GCAAGGAA	-0.189
AGGCTTAG	-0.185
AATTAAAC	0.229

Quoted at random: two entries already listed
Sequence	PBM E-score
GCGGACTA	-0.11
AATTAAAC	0.229

Carrying on:

Sequence	PBM E-score
CAAAGTAC	0.127
CACGAATA	0.255
AAGCTTAT	0.00656
ACTACCAT	0.0819
ACTAGGGA	-0.0927
TAGTAATA	0.0958
AGATGGGC	-0.0743
CTCGGTAA	-0.0512
AGATATCT	0.158
AAGAGACT	-0.215
CCATTCGG	-0.0195
AACAACAC	0.0101
AACATTAC	0.00558
ACCGATAT	0.0499
CGAAACCA	0.123
CATCAATA	0.177
ACGCCGAA	-0.0316
ACAAACGC	-0.0742
CGAACCCG	-0.0227
CAATAGGA	-0.00611
GATCCGGC	-0.00692
AAACTATT	0.0169
CAGCCGAA	-0.104
CACGGGAG	0.034
ACGGGCCT	-0.131

Sequence	PBM E-score
CGCCGGTA	-0.187
AATATCGA	0.0788
GTTAAGTA	-0.0223
CTCATATA	-0.00684
CGCATCCC	-0.23
AGCGCAGA	-0.0505
CGTACGTA	0.266
CGCGAAAC	-0.108
AAAACTAA	0.185
ATGGTGAA	0.0369
GCATTCCA	-0.136
ATGAATCC	0.0636
CTGATGCA	0.0185
CGTCCTGC	0.0578
CGATGACC	0.206
ACAGCGAT	0.0184
TATACGCA	0.153
CCACTCGG	-0.147
AGTCGCGC	-0.0008
CCGATGAC	0.247
ATCTTTAG	0.0145
CATGTTGC	-0.145

Quoted from the listing.
Value for ATTCAGGC under PBM E-score: -0.0517
Value for AATTAAAC under PBM E-score: 0.229
Value for ACGCCGAA under PBM E-score: -0.0316
Value for CCTCCGGC under PBM E-score: 0.0837
